For at least one compound, name, drawing or mass did not settle the structure.
Test system: S. aureus (USA300), stationary phase
Assay: Time of kill for free antibiotics on non-replicating bacteria
Type: cell-based, Staphylococcus aureus
Details: 1×10^-6M antibiotic, overnight incubation in PBS at 37° C.
Protocol: Time of kill for free antibiotics on non-replicating bacteria: S. aureus (USA300) was taken from an overnight stationary phase culture, washed once in Phosphate Buffered Saline (PBS) and suspended at 1×10^7 CFU/mL in PBS with no antibiotic or with 1×10^-6M antibiotic in a 10 mL volume in 50 mL polypropylene centrifuge tubes. The bacteria were incubated at 37° C. overnight with shaking. At each time point, three 1 mL samples were removed from each culture and centrifuged to collect the bacteria. Bacteria were washed once with PBS to remove the antibiotic and the total number of surviving bacteria was determined by plating serial dilutions of the bacteria on agar plates.
MRSA was collected from a stationary phase culture and suspended in phosphate buffered saline containing no antibiotic or 1×10^-6M of rifampin or the rifamycin-derivative (Rifalog) and incubated at 37° C. At the indicated times, a sample of the culture was collected and centrifuged to remove the antibiotic and the total number of surviving bacteria was determined by plating.

## CO[C@H]1/C=C/O[C@@]2(C)Oc3c(C)c(O)c4c(O)c(c(/C=N/N5CCN(C)CC5)c(O)c4c3C2=O)NC(=O)/C(C)=C\C=C\[C@H](C)[C@H](O)[C@@H](C)[C@@H](O)[C@@H](C)[C@H](OC(C)=O)[C@@H]1C [Rifampicin]
  decrease in the number of viable, but non-replicating, bacteria: not
